Assay results reported in patent US20250295668A1, “METHODS FOR INDUCING COLANIC ACID BIOSYNTHESIS” (priority 2024, published 2025).
At least one structure is not confirmed: it was looked up by name or label, or the drawing left a doubt.

Test system: wildtype E. coli
Test: Colanic acid measurement (fucose quantification) in wildtype E. coli culture medium
Assay type: cell-based
Settings: FIGS. 1A-1B
Procedure: For colanic acid quantification, E. coli Keio mutants and the parental strain BW25113 were cultured overnight at 37° C. in M9 minimum medium [PMID: 28436966]. Bacteria were then removed by centrifugation and filtered for colanic acid measurement.
The desired bacterial strain was first inoculated and cultured in M9 minimum medium overnight at 37° C. to obtain the seeding culture. The OD 600 was measured, and the seeding bacteria were diluted to OD600=0.02 in M9 minimum medium for another 16 hours. After the incubation, bacterial cultures were collected in 50 mL tubes, spun down at 4,000 g at 4° C. for 30 min, filtered, and 25 mL of supernatant was collected per 50 ml conical tube. Ice-cold 100% ethanol (EtOH) was added to make a final 50% EtOH solution for precipitation, and the mixture was kept at 4° C. overnight. Once precipitation occurred, the liquid was carefully removed after centrifugation at 4,000 g at 4° C. for 50 min. The pellet was washed once with cold 80% EtOH and then air-dried in a hood. The pellet from every 50 mL culture was resuspended in 500 μL distilled H2O. […] The fucose quantification assay was then carried out using a K-FUCOSE kit (Megazyme) according to the manufacturer's protocol.
Next, colanic acid in the bacteria culture medium was quantified via monosaccharide-fucose-from acid-hydrolyzed polysaccharide precipitates. […]

Structure (SMILES): CN(C)[C@@H]1C(O)=C(C(N)=O)C(=O)[C@@]2(O)C(O)=C3C(=O)c4c(O)cccc4[C@@](C)(O)[C@H]3C[C@@H]12 [tetracycline]
- induction of colanic acid production: does not induce colanic acid production
